According to the supplement of paper PMC3334620:
The full ranking holds about 33,000 sequences; the median of “E-score (-0.5 to 0.5)” is about -0.016, and the highest 2% start at about 0.3. The list shows a part of the results.

What follows are sequences tested against T1, Yer184c (UniProt P39961) (assay: PBM E-score (8-mer binding enrichment) (E-score (-0.5 to 0.5)); higher = stronger / more preferred TF binding). Conditions: protein concentration: 100 nM; construct: GST-full length.
T1 sequence: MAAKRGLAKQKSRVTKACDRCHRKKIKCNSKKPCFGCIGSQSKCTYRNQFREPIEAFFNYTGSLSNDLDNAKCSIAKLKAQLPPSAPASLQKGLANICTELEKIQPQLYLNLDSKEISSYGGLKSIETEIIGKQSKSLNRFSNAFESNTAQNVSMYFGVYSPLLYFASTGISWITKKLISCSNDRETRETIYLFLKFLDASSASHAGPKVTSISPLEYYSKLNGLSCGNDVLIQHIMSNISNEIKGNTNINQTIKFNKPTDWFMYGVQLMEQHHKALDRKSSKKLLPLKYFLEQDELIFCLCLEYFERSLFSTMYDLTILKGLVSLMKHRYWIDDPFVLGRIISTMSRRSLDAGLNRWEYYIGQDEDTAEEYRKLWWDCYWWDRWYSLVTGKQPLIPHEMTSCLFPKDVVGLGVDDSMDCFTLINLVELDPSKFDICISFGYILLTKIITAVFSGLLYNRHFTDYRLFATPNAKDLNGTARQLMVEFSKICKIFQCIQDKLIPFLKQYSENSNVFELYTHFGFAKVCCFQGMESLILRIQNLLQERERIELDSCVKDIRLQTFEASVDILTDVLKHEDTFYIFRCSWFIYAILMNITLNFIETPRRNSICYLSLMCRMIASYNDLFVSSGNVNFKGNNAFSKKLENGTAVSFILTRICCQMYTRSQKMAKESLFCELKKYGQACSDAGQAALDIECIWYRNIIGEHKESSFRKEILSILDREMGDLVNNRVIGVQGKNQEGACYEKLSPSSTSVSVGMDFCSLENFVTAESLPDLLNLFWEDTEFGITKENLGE
Description: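 Universal 'all 10-mer' protein binding microarrays (Agilent AMADID 015681) probed with GST-tagged S. cerevisiae TFs (full-length or DBD) made by in vitro transcription/translation (PURExpress), about 100-200 nM. Bound TF was detected with fluorescent anti-GST. Each ungapped 8-mer (which stands for itself and its reverse complement) is scored by the PBM enrichment score (E-score), a modified Wilcoxon-Mann-Whitney statistic from -0.5 to +0.5, computed with the Universal PBM Analysis Suite. Scale: above 0.35 generally sequence-specific binding.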

In order of rising “PBM E-score” value:
1. TAGAGTCA  -0.372
2. AAGGAGAG  -0.349
3. AACAGTTG  -0.31
4. GACCCCCA  -0.301
5. AGGGGGAA  -0.287
6. CCCCTCTA  -0.28
7. TAGGGCCA  -0.28
8. AAGGACTA  -0.231
9. AAGTGCCC  -0.23
10. ATGCAGGG  -0.225
11. CGAGGGGC  -0.222
12. AAGAGCCT  -0.221
13. AAACGTAG  -0.217
14. GCCAGGGC  -0.215
15. ATGCTCCC  -0.212
16. ACCTTTTG  -0.21
17. GTACGCGA  -0.209
18. CGCTGGGC  -0.206
19. AACGTGTG  -0.202
20. CGCCCTCC  -0.202
21. GGCGTAAC  -0.195
22. CTCCAGTC  -0.195
23. AAGACTCA  -0.194
24. TGGCCACA  -0.192
25. AAGGACTC  -0.19
26. GCCCAACC  -0.188
27. AGTGAGGG  -0.188
28. CTCTGAAC  -0.187
29. ACCCGCCT  -0.184
30. AAGGTCAC  -0.18
31. GCTATCAC  -0.179
32. CCTGGTTA  -0.178
33. CCACTCGC  -0.173
34. CCCACTCG  -0.165
35. GGCCCTGA  -0.164
36. CTAGCCAG  -0.159
37. GACGAGAC  -0.158
38. CTCAGCAG  -0.157
39. CCTCAACG  -0.153
40. AAAAGACT  -0.15
41. ACGTCCTA  -0.144
42. CAGCATTA  -0.138
43. CGCAGGAC  -0.138
44. GTCCTAGA  -0.135
45. GAACTACC  -0.134
46. CTTAGGTA  -0.132
47. ACCTTTCA  -0.128
48. AGGTCCGC  -0.118
49. TCTCAGCA  -0.116
50. CTATGGGA  -0.115
51. AGGTGAAC  -0.112
52. ACCGTCAG  -0.104
53. GATTGGCC  -0.0975
54. CGCTTGAC  -0.0949
55. CTCTGCCC  -0.0854
56. CGCTCTAA  -0.0807
57. TACGCACA  -0.08
58. CTCCAATC  -0.0781
59. CAGTCGGG  -0.0768
60. TAGGCTGA  -0.075
61. TGGGCGAA  -0.0741
62. CTTCGTAC  -0.0703
63. AGAGACCA  -0.068
64. AACCCGCT  -0.0677
65. CAAACATA  -0.0664
66. ACATACGC  -0.0638
67. CAAGGAAA  -0.0602
68. AGGATGCA  -0.0542
69. ACTAGCGG  -0.0521
70. ACGCTCAC  -0.0464
71. GTGACGGA  -0.0455
72. GTCAGATA  -0.0426
73. ACTTCTTC  -0.0371
74. TCAGAAAA  -0.0371
75. AGTAGCAT  -0.0361
76. GGTGAAGA  -0.0273
77. ATTCAGGG  -0.0249
78. CTGCTGAC  -0.0247
79. CGCCAATC  -0.0233
80. GGACCTGA  -0.0219
81. GACCCTAA  -0.0197
82. AACTACAG  -0.0177
83. CGTATTAC  -0.0174
84. AAGGTTGA  -0.015
85. CAGACACG  -0.0139
86. GGCTATAC  -0.0115
87. TCGAGCCA  -0.00737
88. CGACCGAC  -0.00614
89. CATATATG  -0.00483
90. ACGCACTC  -0.00473
91. ATCCACTC  -0.00405
92. GACGATCC  0.0002
93. AGAACAGC  0.00378
94. CTACAAAC  0.00848
95. TACGGTGA  0.00983
96. ATGCTAAG  0.0183
97. CGATCGCA  0.0194
98. ACAAATTG  0.0238
99. AATAATGG  0.0275
100. AACGACTA  0.0307
101. GAACACGC  0.0326
102. CGCGACTA  0.033
103. CCTGCTGA  0.0351
104. AGCGGGCC  0.0352
105. ACGTGATC  0.0471
106. GGTAGATA  0.0473
107. AGTTGCAA  0.0479
108. AAACTTGA  0.0495
109. CACCAGGA  0.0515
110. ATTAGCGC  0.056
111. AAACCATG  0.0562
112. CAATCACG  0.0574
113. ATTAGTTC  0.0577
114. GATGTGGA  0.0626
115. CGTTCACA  0.0638
116. ATATCTAA  0.068
117. GAGCAAGC  0.0714
118. ACTGAATA  0.0772
119. ATACAGCA  0.0786
120. GAACGCAC  0.0787
121. CTGATTGC  0.0793
122. CTATACTA  0.0798
123. TCTTAAGA  0.0813
124. CGCATTGA  0.0817
125. GATACAGC  0.0868
126. AACTTTTG  0.0872
127. AAATCGGG  0.0884
128. ATAAACAG  0.0911
129. CAAAGACA  0.0916
130. ATCGGACG  0.0919
131. CTAATCTA  0.0921
132. AAAGCTAA  0.0933
133. TACTTGGA  0.0973
134. AGTAATCA  0.0992
135. ACAAATAA  0.105
136. AATGTCAT  0.105
137. AATCTCGC  0.108
138. AAACAGTT  0.109
139. AAAAGTTG  0.109
140. CGAGGTAA  0.11
141. ATCATAGC  0.112
142. ACGCGGCG  0.113
143. CGGTTATC  0.114
144. ATGATACA  0.125
145. ACCTAACT  0.125
146. CAGCCGGG  0.127
147. ACCTTTCC  0.132
148. GCAATTAA  0.144
149. CGGAAACG  0.146
150. AAGCACAA  0.146
151. AGACCAAA  0.149
152. TGACGTCA  0.151
153. CGGATGAC  0.151
154. ATCATTCC  0.159
155. TATGTTAA  0.173
156. GTTTTCCA  0.174
157. ACGGCATA  0.176
158. AAATACTT  0.182
159. GAATCCGA  0.183
160. AATCTAGT  0.192
161. ATATTGTC  0.21
162. TAACTAGA  0.211
163. ATGTTCGG  0.214
164. GAGTTTAA  0.244
165. CTCGGAGA  0.252
166. TGTAAGAA  0.268
167. CCGAACAA  0.322
168. TCCGGCAA  0.339
169. GAACCGGA  0.349
170. TATTCGGA  0.356
171. ATCCGTTA  0.367
172. ATATCCGG  0.374
